Results are given in words; binding and its absence hold for the method and conditions named. Binding seen in cells or lysates may run through a third protein. Some entries that bind do so weakly or less than the wild type. For part of these data: Where a sequence is shown, tags or fusion partners need not be part of it. Blank lines part the entries; values can stand above or below the molecule they belong to.
How the values were obtained:
[1] = molecular target: T1, GFP-APPL1 PH domain (human) (UniProt Q9UKG1); assay: co-immunoprecipitation: HA IP, GFP immunoblot (FIG. 1O)
T1 sequence (looked up): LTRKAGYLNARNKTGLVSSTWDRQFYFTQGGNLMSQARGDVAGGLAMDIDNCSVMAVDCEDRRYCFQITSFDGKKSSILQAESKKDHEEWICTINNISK

The chains behind the UniProt entries cited, without tags or fusion partners. Where a name states a change or a piece, a line headed by the entry shows the natural chain unless it says otherwise.
UniProt Q96GD4: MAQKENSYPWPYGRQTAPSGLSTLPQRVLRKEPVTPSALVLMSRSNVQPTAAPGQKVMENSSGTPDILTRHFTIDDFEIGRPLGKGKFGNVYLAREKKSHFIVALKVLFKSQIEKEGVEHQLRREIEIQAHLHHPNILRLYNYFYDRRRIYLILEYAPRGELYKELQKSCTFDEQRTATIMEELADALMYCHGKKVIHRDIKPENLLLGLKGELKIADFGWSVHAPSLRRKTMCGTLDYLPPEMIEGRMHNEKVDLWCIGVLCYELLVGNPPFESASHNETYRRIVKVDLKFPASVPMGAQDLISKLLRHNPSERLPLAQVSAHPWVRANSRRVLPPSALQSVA

[2] = molecular target: T2, GFP-APPL1 BAR domain (human) (UniProt Q9UKG1); assay: as above
T2 sequence (looked up): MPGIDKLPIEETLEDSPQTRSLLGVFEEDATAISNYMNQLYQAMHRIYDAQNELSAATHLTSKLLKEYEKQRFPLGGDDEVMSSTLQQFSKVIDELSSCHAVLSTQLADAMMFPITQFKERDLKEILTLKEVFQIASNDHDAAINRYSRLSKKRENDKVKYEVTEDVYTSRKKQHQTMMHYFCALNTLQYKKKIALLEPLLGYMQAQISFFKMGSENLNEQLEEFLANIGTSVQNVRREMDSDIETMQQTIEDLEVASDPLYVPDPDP

[3] = molecular target: T3, GFP-APPL1 PTB domain (human) (UniProt Q9UKG1); assay: as above
T3 sequence (looked up): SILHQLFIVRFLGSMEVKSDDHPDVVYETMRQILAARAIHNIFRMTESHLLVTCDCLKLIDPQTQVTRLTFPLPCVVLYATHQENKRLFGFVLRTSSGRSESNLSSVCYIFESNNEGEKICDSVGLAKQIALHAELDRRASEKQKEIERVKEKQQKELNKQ

[4] = molecular target: T1, GFP-APPL1 PH domain (human); assay: co-immunoprecipitation: HA IP, GFP immunoblot, synchronized PC-3U cells (FIG. 1O)
[5] = molecular target: T2, GFP-APPL1 BAR domain (human); assay: as above
[6] = molecular target: T3, GFP-APPL1 PTB domain (human); assay: as above
[7] = molecular target: T4, Adaptor Protein, Phosphotyrosine Interacting With PH Domain And Leucine Zipper 1 (APPL1), endogenous in PC-3U cells (human) (UniProt Q9UKG1); assay: co-immunoprecipitation, PC-3U lysates (FIG. 3C)
T4 sequence (looked up): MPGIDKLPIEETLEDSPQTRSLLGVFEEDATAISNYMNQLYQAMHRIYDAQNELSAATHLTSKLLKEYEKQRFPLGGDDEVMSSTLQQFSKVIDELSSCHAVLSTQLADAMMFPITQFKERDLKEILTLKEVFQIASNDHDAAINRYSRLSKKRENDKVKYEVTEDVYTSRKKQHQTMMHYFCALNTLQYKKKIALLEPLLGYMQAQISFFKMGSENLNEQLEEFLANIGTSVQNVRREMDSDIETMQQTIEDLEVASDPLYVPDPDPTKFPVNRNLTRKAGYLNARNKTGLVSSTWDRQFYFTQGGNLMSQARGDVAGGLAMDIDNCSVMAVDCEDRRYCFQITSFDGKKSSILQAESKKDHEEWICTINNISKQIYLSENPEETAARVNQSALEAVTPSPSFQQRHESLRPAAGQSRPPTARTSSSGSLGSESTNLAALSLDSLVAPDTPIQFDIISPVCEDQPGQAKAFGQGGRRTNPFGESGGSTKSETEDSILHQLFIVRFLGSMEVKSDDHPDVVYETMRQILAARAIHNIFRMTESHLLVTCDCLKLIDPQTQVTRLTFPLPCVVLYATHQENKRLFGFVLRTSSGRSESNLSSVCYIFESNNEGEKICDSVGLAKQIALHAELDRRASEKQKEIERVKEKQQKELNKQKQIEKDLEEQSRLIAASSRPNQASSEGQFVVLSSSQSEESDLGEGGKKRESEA

[8] = molecular target: T4, Adaptor Protein, Phosphotyrosine Interacting With PH Domain And Leucine Zipper 1 (APPL1), endogenous in PC-3U cells (human); assay: co-immunoprecipitation: AURKB antibody IP, APPL1 immunoblot, synchronized PC-3U lysates (FIG. 3C)
[9] = molecular target: Aurora kinase B (AURKB), endogenous, in PC-3U cell lysates / human tissue sections (human) (UniProt Q96GD4); assay: confocal co-localisation and co-immunoprecipitation in PC-3U cells

binding [1]: binds | binding [2]: binds | binding [3]: binds | binding [4]: binds | binding [5]: binds | binding [6]: binds
Molecule: HA-AURKB (from UniProt Q96GD4 1-344) (enzyme)

binding [7]: binds | binding [8]: binds
Molecule: Aurora kinase B (AURKB), endogenous, in PC-3U cell lysates / human tissue sections (from UniProt Q96GD4 1-344) (enzyme)

binding [9]: binds
B1: Adaptor Protein, Phosphotyrosine Interacting With PH Domain And Leucine Zipper 1 (APPL1), endogenous in PC-3U cells (protein, human, UniProt Q9UKG1 1-709, looked up)
chain: MPGIDKLPIEETLEDSPQTRSLLGVFEEDATAISNYMNQLYQAMHRIYDAQNELSAATHLTSKLLKEYEKQRFPLGGDDEVMSSTLQQFSKVIDELSSCHAVLSTQLADAMMFPITQFKERDLKEILTLKEVFQIASNDHDAAINRYSRLSKKRENDKVKYEVTEDVYTSRKKQHQTMMHYFCALNTLQYKKKIALLEPLLGYMQAQISFFKMGSENLNEQLEEFLANIGTSVQNVRREMDSDIETMQQTIEDLEVASDPLYVPDPDPTKFPVNRNLTRKAGYLNARNKTGLVSSTWDRQFYFTQGGNLMSQARGDVAGGLAMDIDNCSVMAVDCEDRRYCFQITSFDGKKSSILQAESKKDHEEWICTINNISKQIYLSENPEETAARVNQSALEAVTPSPSFQQRHESLRPAAGQSRPPTARTSSSGSLGSESTNLAALSLDSLVAPDTPIQFDIISPVCEDQPGQAKAFGQGGRRTNPFGESGGSTKSETEDSILHQLFIVRFLGSMEVKSDDHPDVVYETMRQILAARAIHNIFRMTESHLLVTCDCLKLIDPQTQVTRLTFPLPCVVLYATHQENKRLFGFVLRTSSGRSESNLSSVCYIFESNNEGEKICDSVGLAKQIALHAELDRRASEKQKEIERVKEKQQKELNKQKQIEKDLEEQSRLIAASSRPNQASSEGQFVVLSSSQSEESDLGEGGKKRESEA

— patent publication US20240264161A1, “BIOMARKERS AND USES THEREOF” (MetaCurUm Biotech AB, priority 2021, published 2024)
